No constants are given. Whether binding was seen depends on the method and setting. Some entries that bind do so weakly or less than the wild type.
Assays:
[1] = target: Rhesus monkey CD40 extracellular domain (recombinant) (Rhesus monkey) (UniProt F6SNI1); assay: ELISA on coated CD40 extracellular domain; antibody as human IgG4
[2] = target: Rhesus monkey CD40 extracellular domain (recombinant) (Rhesus monkey) (UniProt F6SNI1); assay: ELISA, plate coated with recombinant rhesus monkey CD40 extracellular domain, antibody (human IgG4 format) in serial dilution, anti-human IgG-HRP, OD450
[3] = target: human CD40 extracellular domain (recombinant) (human) (UniProt P25942); assay: ELISA, plate coated with recombinant human CD40 extracellular domain, antibody (human IgG4 format) in serial dilution, anti-human IgG-HRP, OD450
[4] = target: human CD40 extracellular domain (recombinant) (human) (UniProt P25942); assay: SPR, Biacore 8K
[5] = target: human CD40 extracellular domain (recombinant) (human) (UniProt P25942); assay: ELISA on coated CD40 extracellular domain; antibody as human IgG4
[6] = target: Rhesus monkey CD40 extracellular domain (recombinant) (Rhesus monkey) (UniProt F6SNI1); assay: ELISA on coated CD40 extracellular domain

By UniProt entry, the sequences of proteins in these tests, tags left out. Where a name states a change or a piece, a line headed by the entry shows the natural chain unless it says otherwise. Chains listed by the source or under a name are the forms on record and can include a tag or linker.
Rhesus monkey CD40 extracellular domain (recombinant) (F6SNI1, form named): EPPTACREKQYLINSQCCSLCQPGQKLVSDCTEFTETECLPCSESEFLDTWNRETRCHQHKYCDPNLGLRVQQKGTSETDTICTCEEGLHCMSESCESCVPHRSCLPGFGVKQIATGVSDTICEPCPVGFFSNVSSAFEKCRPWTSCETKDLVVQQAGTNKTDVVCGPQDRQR
UniProt P25942: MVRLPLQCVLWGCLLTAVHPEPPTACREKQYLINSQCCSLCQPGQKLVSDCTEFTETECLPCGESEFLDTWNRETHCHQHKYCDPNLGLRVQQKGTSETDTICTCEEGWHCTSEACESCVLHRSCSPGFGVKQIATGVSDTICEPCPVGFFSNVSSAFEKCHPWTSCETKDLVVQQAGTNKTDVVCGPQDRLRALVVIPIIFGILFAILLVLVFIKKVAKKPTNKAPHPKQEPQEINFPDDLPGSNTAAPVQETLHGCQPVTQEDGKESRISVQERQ

B1: D33 (antibody, human IgG4, V domains shown)
VH: QVQLVQSGAEVKKPGASVKVSCKASVYSFTGYTVNWVRQAPGQRLEWMGLINPLNGGTTYNQKFKGRVTLTIDKSASTAYMELSSLRSEDTAVYYCASSYYSTPYAMDYWGQGTLVTVSS
VL: EIVMTQSPATLSVSPGERATLSCKASQNVHTRVAWYQQKPGQAPRLLIYLASDRRTGIPARFSGSGSGTEFTLTISSLQSEDFAVYYCLQHWNYPLTFGQGTKVEIK
notes: also called optimized anti-CD40 antibody D33
[1]
  binding: binds
[2]
  binding: binds

B2: D42 (antibody, V domains shown)
VH: QVQLVQSGAEVKKPGASVKVSCKASVYSFTGYTVNWVRQAPGQRLEWMGLIVPYNGGTTYNQKFKGRVTLTIDKSASTAYMELSSLRSEDTAVYYCASSRYSNPYAMDYWGQGTLVTVSS
VL: EIVMTQSPATLSVSPGERATLSCKASQNVHTRVAWYQQKPGQAPRLLIYLASDRRTGIPARFSGSGSGTEFTLTISSLQSEDFAVYYCLQHWNYPLTFGQGTKVEIK
notes: also called optimized anti-CD40 antibody D42
[3]
  binding: binds
[4]
  binding: binds
[1]
  binding: binds
[5]
  binding: binds
[2]
  binding: binds

B3: D47 (antibody, human IgG4, V domains shown)
VH: QVQLVQSGAEVKKPGASVKVSCKASVYSFTGYTVNWVRQAPGQRLEWMGLINPYTGGTTYNQKFKGRVTLTIDKSASTAYMELSSLRSEDTAVYYCASSYYSNPYASDYWGQGTLVTVSS
VL: EIVMTQSPATLSVSPGERATLSCKASQNVHTRVAWYQQKPGQAPRLLIYLASDRRTGIPARFSGSGSGTEFTLTISSLQSEDFAVYYCLQHWTYPLTFGQGTKVEIK
notes: also called optimized anti-CD40 antibody D47
[1]
  binding: binds
[2]
  binding: binds

B4: D49 (antibody, human IgG4, V domains shown)
VH: QVQLVQSGAEVKKPGASVKVSCKASVYSFTGYTVNWVRQAPGQRLEWMGLINPYNGGTSYNQKFKGRVTLTIDKSASTAYMELSSLRSEDTAVYYCASSPYSNPYAMDYWGQGTLVTVSS
VL: EIVMTQSPATLSVSPGERATLSCKASQNVHTRVAWYQQKPGQAPRLLIYLASDRRTGIPARFSGSGSGTEFTLTISSLQSEDFAVYYCLQHWTYPLTFGQGTKVEIK
notes: also called optimized anti-CD40 antibody D49
[1]
  binding: binds
[2]
  binding: binds

B5: D1 (antibody, V domains shown)
VH: EVQLQQSGPDLVKPGASMKISCKASVYSFTGYTVNWVKQSHGKSLEWIGLINPYNGGTTYNQKFKGKATLTIDKSSTTAYMELLSLTSEDSAVYYCASSYYSNPYAMDYWGQGTSVTVSS
VL: DIVLNQSQKFMSTSVGDRVSITCKASQNVHTAVAWYQQKPGQSPKALIYLASDRRTGIPDRFTGSGSGTDFTLTIDNVQSEDLADYFCLQHWNYPLTFGAGTKLELK
notes: Full-length chimeric antibody: mouse variable domains with a human IgG1 or IgG4 heavy chain constant domain and a human kappa light chain constant domain; also called anti-CD40 antibody D1; mouse antibody D1
[6]
  binding: binds

B6: D2 (antibody, V domains shown)
VH: EVHVKQSGAELVKPGASVKLSCTASGFNIKDAYMHWVKQRPEQGLEWIGRIDPANGNTKYDPKFQGKASITTDTSSNTAYLQLSSLTSEDTAVYYCTPNYYGSRYPFAYWGQGTTVTVSS
VL: DIVLTQSPAIMSASPGEKVSITCSASSSVSYMHWFQQKPGTSPKLWIYSTSNLASGVPARFSGSGSGTSYSLTISRMEADDAATYYCQQGSSYPLTFGAGTKLELK
notes: Full-length chimeric antibody: mouse variable domains with a human IgG1 or IgG4 heavy chain constant domain and a human kappa light chain constant domain; also called anti-CD40 antibody D2
[6]
  binding: binds

B7: D3 (antibody, V domains shown)
VH: EVQLQQSGAELVKPGASVKLSCTASGFNIKDSYMHWVKQRPEQGLEWIGRIDPANGNTKYDPKFQGKATITADTSSNTAYLQLSSLTSEDTAVYYCVPNYYGAAYPFAYWGQGTTVTVSS
VL: DIVLIQSPAIMSASPGEKVTITCSASSSVSYMHWFQQKPGTSPKVWIYSTSNLASGVPARFGGSGSGTSYSLTISRMEAEDAATYYCQQGSSYPLTFGAGTKLELK
notes: Full-length chimeric antibody: mouse variable domains with a human IgG1 or IgG4 heavy chain constant domain and a human kappa light chain constant domain; also called anti-CD40 antibody D3
[6]
  binding: binds

B8: D7 (antibody, V domains shown)
VH: QIQLLQSGAELVKPGASVKLSCTASGFNIKDAYMHWVKQRPEQGLEWIGRIDPANGYTKSDPKFQGKATITSDTSSNTAYLQLSSLTSEDTAVYYCAPNYYGSRYPFAYWGQGTLVTVSS
VL: QIVLTQSPAIMSASPGEKVTITCSASSSVSYMHWFQQKPGTSPKIWIYFTSNLASGVPARFSGSGSGTSYSLTISRMEAEDAATYYCQQGSTYPLTFGAGTKLELK
notes: Full-length chimeric antibody: mouse variable domains with a human IgG1 or IgG4 heavy chain constant domain and a human kappa light chain constant domain; also called anti-CD40 antibody D7
[6]
  binding: binds

Source: patent US20240343817A1 (STAIDSON BEIJING BIOPHARMACEUTICALS, published 2024)
